These are yes or no findings as the source states them, for the method shown. Binding seen in cells or lysates may run through a third protein. Some entries that bind do so weakly or less than the wild type.
T1: Nrd1 (S. cerevisiae (endogenous in yeast cells)) (UniProt P53617)
T1 sequence: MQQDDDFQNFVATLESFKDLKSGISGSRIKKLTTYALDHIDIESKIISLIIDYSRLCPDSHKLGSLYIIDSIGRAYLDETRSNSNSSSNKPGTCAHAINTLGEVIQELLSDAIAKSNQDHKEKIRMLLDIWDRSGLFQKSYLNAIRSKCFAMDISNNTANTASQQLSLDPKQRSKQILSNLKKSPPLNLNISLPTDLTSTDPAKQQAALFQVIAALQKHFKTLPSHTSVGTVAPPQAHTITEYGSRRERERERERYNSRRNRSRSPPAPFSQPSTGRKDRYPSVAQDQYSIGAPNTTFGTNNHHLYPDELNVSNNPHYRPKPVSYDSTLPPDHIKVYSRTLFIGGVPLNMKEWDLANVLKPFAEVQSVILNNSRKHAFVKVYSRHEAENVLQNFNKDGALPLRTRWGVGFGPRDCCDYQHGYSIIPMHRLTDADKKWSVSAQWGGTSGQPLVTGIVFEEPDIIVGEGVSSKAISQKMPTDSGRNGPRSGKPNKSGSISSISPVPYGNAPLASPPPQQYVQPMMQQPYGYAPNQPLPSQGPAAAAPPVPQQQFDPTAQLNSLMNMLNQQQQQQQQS

Chains of the proteins cited; added tags and fusions are not shown.
UniProt Q00416: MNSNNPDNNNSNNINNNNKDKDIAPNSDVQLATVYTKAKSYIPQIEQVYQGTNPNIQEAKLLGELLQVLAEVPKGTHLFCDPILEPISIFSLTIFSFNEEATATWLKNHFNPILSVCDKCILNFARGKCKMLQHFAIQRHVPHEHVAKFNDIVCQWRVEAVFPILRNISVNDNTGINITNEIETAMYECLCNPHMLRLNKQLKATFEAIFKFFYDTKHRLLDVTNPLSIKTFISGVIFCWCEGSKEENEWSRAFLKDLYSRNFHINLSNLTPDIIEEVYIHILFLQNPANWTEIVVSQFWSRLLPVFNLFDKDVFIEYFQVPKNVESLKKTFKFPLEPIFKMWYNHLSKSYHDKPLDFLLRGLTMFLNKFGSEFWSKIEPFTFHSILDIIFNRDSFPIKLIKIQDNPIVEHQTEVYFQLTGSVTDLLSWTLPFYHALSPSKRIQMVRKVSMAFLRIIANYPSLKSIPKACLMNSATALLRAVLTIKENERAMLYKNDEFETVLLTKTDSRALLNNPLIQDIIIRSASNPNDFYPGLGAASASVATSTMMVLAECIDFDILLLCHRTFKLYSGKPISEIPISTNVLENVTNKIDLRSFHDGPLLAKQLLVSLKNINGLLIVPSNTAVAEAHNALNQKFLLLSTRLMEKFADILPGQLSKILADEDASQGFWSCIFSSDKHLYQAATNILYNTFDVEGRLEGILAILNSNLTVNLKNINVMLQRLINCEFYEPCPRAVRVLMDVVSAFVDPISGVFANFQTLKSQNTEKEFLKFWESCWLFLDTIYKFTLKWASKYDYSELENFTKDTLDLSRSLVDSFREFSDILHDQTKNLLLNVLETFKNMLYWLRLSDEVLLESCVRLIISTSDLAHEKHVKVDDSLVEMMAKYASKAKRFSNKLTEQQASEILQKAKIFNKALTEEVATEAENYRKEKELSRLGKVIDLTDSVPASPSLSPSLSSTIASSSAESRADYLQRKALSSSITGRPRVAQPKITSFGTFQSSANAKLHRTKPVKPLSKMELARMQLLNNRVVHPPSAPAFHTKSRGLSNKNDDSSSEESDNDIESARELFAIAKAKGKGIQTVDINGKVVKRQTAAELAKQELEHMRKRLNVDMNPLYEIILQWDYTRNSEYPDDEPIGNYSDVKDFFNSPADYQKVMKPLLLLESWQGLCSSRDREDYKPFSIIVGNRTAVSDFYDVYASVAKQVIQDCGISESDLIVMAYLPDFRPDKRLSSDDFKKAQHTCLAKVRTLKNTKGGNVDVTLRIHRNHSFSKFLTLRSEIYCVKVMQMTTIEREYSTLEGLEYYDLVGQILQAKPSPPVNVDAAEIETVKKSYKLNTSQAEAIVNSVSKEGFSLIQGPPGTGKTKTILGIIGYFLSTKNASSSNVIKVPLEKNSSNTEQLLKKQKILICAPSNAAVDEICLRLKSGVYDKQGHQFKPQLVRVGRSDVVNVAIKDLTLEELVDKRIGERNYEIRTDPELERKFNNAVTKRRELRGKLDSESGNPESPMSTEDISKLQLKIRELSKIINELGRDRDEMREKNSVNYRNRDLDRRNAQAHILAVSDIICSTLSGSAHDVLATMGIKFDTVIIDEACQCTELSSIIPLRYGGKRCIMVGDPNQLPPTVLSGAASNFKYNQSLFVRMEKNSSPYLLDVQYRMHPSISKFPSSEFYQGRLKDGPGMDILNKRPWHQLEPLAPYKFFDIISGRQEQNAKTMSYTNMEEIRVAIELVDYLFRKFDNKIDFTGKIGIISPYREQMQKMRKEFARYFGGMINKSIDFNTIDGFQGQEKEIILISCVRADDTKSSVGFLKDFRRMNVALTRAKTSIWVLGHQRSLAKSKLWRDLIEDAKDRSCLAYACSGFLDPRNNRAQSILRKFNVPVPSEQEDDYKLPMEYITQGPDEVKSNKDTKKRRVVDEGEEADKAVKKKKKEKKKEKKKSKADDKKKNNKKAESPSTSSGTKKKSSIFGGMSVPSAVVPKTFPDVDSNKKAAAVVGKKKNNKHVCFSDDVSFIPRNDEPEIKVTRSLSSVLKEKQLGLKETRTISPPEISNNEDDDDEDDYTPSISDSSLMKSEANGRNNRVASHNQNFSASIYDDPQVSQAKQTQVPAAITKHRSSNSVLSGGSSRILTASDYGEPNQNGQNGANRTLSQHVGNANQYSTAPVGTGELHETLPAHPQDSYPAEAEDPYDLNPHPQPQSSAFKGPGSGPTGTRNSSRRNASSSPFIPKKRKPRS

T2: Nab3-K363R (S. cerevisiae) (UniProt P38996)
T2 sequence: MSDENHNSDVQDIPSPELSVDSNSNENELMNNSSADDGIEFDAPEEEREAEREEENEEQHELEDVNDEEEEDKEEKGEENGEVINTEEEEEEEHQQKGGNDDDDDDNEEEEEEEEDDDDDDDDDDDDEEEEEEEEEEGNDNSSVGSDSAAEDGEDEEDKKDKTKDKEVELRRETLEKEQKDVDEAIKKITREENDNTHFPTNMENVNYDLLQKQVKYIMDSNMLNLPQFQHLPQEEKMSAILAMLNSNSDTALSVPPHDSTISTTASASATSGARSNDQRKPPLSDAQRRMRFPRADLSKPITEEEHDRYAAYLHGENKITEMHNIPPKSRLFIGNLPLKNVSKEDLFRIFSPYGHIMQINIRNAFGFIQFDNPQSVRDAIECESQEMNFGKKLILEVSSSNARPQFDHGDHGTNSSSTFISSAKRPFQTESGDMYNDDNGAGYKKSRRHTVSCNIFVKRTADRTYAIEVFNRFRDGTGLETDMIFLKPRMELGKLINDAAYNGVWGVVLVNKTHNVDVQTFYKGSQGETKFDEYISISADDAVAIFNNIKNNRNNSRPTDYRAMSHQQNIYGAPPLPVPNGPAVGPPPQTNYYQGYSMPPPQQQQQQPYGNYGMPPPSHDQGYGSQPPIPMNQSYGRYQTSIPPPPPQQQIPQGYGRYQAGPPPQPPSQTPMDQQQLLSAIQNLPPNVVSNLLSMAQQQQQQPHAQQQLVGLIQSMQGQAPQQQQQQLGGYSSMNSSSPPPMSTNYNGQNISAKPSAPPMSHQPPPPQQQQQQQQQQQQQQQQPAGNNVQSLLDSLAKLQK

T3: Nab3 (wildtype) (S. cerevisiae) (UniProt P38996)
T3 sequence: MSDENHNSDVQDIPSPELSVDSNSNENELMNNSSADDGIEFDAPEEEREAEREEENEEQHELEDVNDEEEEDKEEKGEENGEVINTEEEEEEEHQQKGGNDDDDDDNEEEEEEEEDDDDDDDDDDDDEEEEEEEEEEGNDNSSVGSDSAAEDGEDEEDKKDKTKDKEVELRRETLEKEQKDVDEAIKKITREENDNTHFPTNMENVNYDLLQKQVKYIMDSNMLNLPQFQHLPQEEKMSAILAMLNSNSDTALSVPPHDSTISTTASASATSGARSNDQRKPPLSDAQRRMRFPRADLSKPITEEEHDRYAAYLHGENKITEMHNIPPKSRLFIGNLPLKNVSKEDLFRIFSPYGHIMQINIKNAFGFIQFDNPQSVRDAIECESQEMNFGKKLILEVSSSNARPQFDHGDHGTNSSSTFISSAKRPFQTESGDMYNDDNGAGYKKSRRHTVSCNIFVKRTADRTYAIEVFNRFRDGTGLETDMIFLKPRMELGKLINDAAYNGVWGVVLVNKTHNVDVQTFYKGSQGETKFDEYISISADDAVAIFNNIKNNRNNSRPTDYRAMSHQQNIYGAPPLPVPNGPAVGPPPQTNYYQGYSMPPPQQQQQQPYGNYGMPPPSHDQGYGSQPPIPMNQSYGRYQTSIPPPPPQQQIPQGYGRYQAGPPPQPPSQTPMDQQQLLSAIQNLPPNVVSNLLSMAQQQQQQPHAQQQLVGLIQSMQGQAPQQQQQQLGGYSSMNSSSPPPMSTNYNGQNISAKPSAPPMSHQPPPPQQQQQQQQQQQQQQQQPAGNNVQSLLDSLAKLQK

B1: Nab3 (wildtype) (protein, UniProt P38996 1-802)
chain: MSDENHNSDVQDIPSPELSVDSNSNENELMNNSSADDGIEFDAPEEEREAEREEENEEQHELEDVNDEEEEDKEEKGEENGEVINTEEEEEEEHQQKGGNDDDDDDNEEEEEEEEDDDDDDDDDDDDEEEEEEEEEEGNDNSSVGSDSAAEDGEDEEDKKDKTKDKEVELRRETLEKEQKDVDEAIKKITREENDNTHFPTNMENVNYDLLQKQVKYIMDSNMLNLPQFQHLPQEEKMSAILAMLNSNSDTALSVPPHDSTISTTASASATSGARSNDQRKPPLSDAQRRMRFPRADLSKPITEEEHDRYAAYLHGENKITEMHNIPPKSRLFIGNLPLKNVSKEDLFRIFSPYGHIMQINIKNAFGFIQFDNPQSVRDAIECESQEMNFGKKLILEVSSSNARPQFDHGDHGTNSSSTFISSAKRPFQTESGDMYNDDNGAGYKKSRRHTVSCNIFVKRTADRTYAIEVFNRFRDGTGLETDMIFLKPRMELGKLINDAAYNGVWGVVLVNKTHNVDVQTFYKGSQGETKFDEYISISADDAVAIFNNIKNNRNNSRPTDYRAMSHQQNIYGAPPLPVPNGPAVGPPPQTNYYQGYSMPPPQQQQQQPYGNYGMPPPSHDQGYGSQPPIPMNQSYGRYQTSIPPPPPQQQIPQGYGRYQAGPPPQPPSQTPMDQQQLLSAIQNLPPNVVSNLLSMAQQQQQQPHAQQQLVGLIQSMQGQAPQQQQQQLGGYSSMNSSSPPPMSTNYNGQNISAKPSAPPMSHQPPPPQQQQQQQQQQQQQQQQPAGNNVQSLLDSLAKLQK
B2: Nab3-K363R (protein, UniProt P38996 1-802)
chain: MSDENHNSDVQDIPSPELSVDSNSNENELMNNSSADDGIEFDAPEEEREAEREEENEEQHELEDVNDEEEEDKEEKGEENGEVINTEEEEEEEHQQKGGNDDDDDDNEEEEEEEEDDDDDDDDDDDDEEEEEEEEEEGNDNSSVGSDSAAEDGEDEEDKKDKTKDKEVELRRETLEKEQKDVDEAIKKITREENDNTHFPTNMENVNYDLLQKQVKYIMDSNMLNLPQFQHLPQEEKMSAILAMLNSNSDTALSVPPHDSTISTTASASATSGARSNDQRKPPLSDAQRRMRFPRADLSKPITEEEHDRYAAYLHGENKITEMHNIPPKSRLFIGNLPLKNVSKEDLFRIFSPYGHIMQINIRNAFGFIQFDNPQSVRDAIECESQEMNFGKKLILEVSSSNARPQFDHGDHGTNSSSTFISSAKRPFQTESGDMYNDDNGAGYKKSRRHTVSCNIFVKRTADRTYAIEVFNRFRDGTGLETDMIFLKPRMELGKLINDAAYNGVWGVVLVNKTHNVDVQTFYKGSQGETKFDEYISISADDAVAIFNNIKNNRNNSRPTDYRAMSHQQNIYGAPPLPVPNGPAVGPPPQTNYYQGYSMPPPQQQQQQPYGNYGMPPPSHDQGYGSQPPIPMNQSYGRYQTSIPPPPPQQQIPQGYGRYQAGPPPQPPSQTPMDQQQLLSAIQNLPPNVVSNLLSMAQQQQQQPHAQQQLVGLIQSMQGQAPQQQQQQLGGYSSMNSSSPPPMSTNYNGQNISAKPSAPPMSHQPPPPQQQQQQQQQQQQQQQQPAGNNVQSLLDSLAKLQK
B3: Nrd1 (protein, UniProt P53617 1-575)
chain: MQQDDDFQNFVATLESFKDLKSGISGSRIKKLTTYALDHIDIESKIISLIIDYSRLCPDSHKLGSLYIIDSIGRAYLDETRSNSNSSSNKPGTCAHAINTLGEVIQELLSDAIAKSNQDHKEKIRMLLDIWDRSGLFQKSYLNAIRSKCFAMDISNNTANTASQQLSLDPKQRSKQILSNLKKSPPLNLNISLPTDLTSTDPAKQQAALFQVIAALQKHFKTLPSHTSVGTVAPPQAHTITEYGSRRERERERERYNSRRNRSRSPPAPFSQPSTGRKDRYPSVAQDQYSIGAPNTTFGTNNHHLYPDELNVSNNPHYRPKPVSYDSTLPPDHIKVYSRTLFIGGVPLNMKEWDLANVLKPFAEVQSVILNNSRKHAFVKVYSRHEAENVLQNFNKDGALPLRTRWGVGFGPRDCCDYQHGYSIIPMHRLTDADKKWSVSAQWGGTSGQPLVTGIVFEEPDIIVGEGVSSKAISQKMPTDSGRNGPRSGKPNKSGSISSISPVPYGNAPLASPPPQQYVQPMMQQPYGYAPNQPLPSQGPAAAAPPVPQQQFDPTAQLNSLMNMLNQQQQQQQQS

Experiments:
[1] = target: T1, Nrd1 (S. cerevisiae (endogenous in yeast cells)); assay: co-IP; whole cell lysate of wildtype or nab3-K363R yeast; polyclonal anti-Nrd1 antibody on Protein A-Sepharose, 2 h at 4°C; lysis and wash buffer 50 mM Na-HEPES pH 7.5, 200 mM NaOAc, 0.25% NP-40; immunoblot for Nrd1, Nab3, Sen1, Pgk1; no-antibody control
[2] = target: T2, Nab3-K363R (S. cerevisiae); assay: co-IP; reciprocal: whole cell lysate of wildtype or nab3-K363R yeast; monoclonal anti-Nab3 antibody on Protein G-Sepharose, 2 h at 4°C; same buffers; immunoblot
[3] = target: T3, Nab3 (wildtype) (S. cerevisiae); assay: as above

Row | Molecule | binding [1] | binding [2] | binding [3]
1 | Sen1 (from UniProt Q00416 1-2231) | binds |  | 
2 | B1 | binds |  | 
3 | B2 | binds |  | 
4 | B3 |  | binds | binds

Source: article PMC7102954, “A crucial RNA-binding lysine residue in the Nab3 RRM domain undergoes SET1 and SET3-responsive methylation”
